Results: patent US20220380484A1 (MONASH UNIVERSITY, published 2022)
Results are given in words; binding and its absence hold for the method and conditions named. Some binding calls cover weakened binding; strength is not graded here.

Protein sequences, listed by entry. Tags and fused reporters are not part of them. Lines headed by an entry give the natural chain unless they say otherwise; changes in a name come on top.
UniProt P00747: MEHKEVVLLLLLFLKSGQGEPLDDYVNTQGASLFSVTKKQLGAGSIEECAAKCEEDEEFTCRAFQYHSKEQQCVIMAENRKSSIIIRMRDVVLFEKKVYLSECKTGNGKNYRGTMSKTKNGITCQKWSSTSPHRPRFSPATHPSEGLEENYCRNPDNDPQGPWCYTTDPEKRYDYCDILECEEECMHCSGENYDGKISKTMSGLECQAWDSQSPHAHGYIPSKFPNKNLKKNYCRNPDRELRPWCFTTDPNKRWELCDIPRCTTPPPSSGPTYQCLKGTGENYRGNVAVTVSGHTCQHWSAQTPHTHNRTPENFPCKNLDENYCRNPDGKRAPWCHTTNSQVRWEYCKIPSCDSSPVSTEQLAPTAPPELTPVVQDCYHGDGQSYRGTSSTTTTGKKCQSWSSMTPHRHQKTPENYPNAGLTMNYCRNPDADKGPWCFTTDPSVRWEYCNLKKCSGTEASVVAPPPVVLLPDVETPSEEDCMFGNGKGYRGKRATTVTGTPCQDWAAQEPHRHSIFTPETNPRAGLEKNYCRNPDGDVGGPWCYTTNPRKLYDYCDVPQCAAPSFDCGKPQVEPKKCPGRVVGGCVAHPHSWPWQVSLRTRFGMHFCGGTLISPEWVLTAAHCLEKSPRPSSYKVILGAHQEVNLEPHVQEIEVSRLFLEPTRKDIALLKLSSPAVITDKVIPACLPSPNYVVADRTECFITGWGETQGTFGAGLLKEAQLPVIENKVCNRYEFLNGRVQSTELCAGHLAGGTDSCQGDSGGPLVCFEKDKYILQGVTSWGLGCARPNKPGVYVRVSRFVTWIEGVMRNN

How the values were obtained:
[1] = target: recombinant kringle 5-serine protease domain (KR5-SP) (human) (UniProt P00747); test: X-ray crystal structure
plasmin [2] = target: T1, plasmin (human, UniProt P00747 20-580; P00747 581-810); test: SPR, multi-cycle; G05 immobilised on the chip, plasmin injected as analyte
T1 construct: Bought plasmin (Haematologic Technologies) is named in the activity assay; also called Plm; PLM

[3] = target: recombinant kringle 5-serine protease domain (KR5-SP) (human) (UniProt P00747); test: size-exclusion chromatography, Superdex 200 16/60
[4] = target: recombinant kringle 5-serine protease domain (KR5-SP) (human) (UniProt P00747); test: size-exclusion chromatography
plasmin [5] = target: T1, plasmin; test: SPR, multi-cycle; G05 immobilised, plasmin injected; 1:1 Langmuir fit
plasmin [6] = target: T1, plasmin; test: SPR (Biacore T200), antibody immobilised; FIG. 1
[7] = target: recombinant kringle 5-serine protease domain (KR5-SP) (human) (UniProt P00747); test: X-ray crystal structure, 2.0 Å
[8] = target: recombinant kringle 5-serine protease domain (KR5-SP) (human) (UniProt P00747); test: X-ray crystal structure of the scFv fragment of G05 with KR5-SP

Measured: binding

B1: G05 antibody (scFv, V domains shown)
VH: AVTLDESGGGLQTPGRALSLVCKASGFTFSSYAMHWVRQAPGKGLEFVAGIDNIGSYTRYGAAVKGRVTISRDNGQSIVRLQLDNLRAEDTGTYYCAKSAYGGSCCGPAYIDAWGHGTEVIVSS
VL: QAALTQPSSVSANPGETVEITCSGGGRSSYYGWYQQKSPGSAPVTLIYDNTNRPSNIPSRFSGSKSGSTATLTITGVQGEDEAVYFCGSADSSTTGIFGAGTTLTVL
notes: Chicken antibody from an scFv library (VH and VL joined by a flexible linker); also called scFv fragment of G05
binds: all assays above
